Measurements reported in PubChem BioAssay AID1259275 (Sanger Institute, 2017).

Test: 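Kinome and custom colorectal gene library screened for lethal knock-downs and drug partners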 (primary screen)
System: COLO320HSR human colorectal cancer cells
Reagents: siRNA pool against human genes
Conditions: anchor drug added one day after transfection: BYL719 at 1 µM, cetuximab at 5 µg/ml or trametinib at 10 nM; DMSO as vehicle arm
Detection: 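Viability averaged over replicates as a fraction of the non-targeting pool, a robust z-score for knock-down alone, and synergy scores with BYL719 (1 µM), cetuximab (5 µg/ml) or trametinib (10 nM)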
Scale: robust z-score, siRNA alone: higher = more viable cells; strongly negative means essential
Call rule: 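Essential means the knock-down by itself gives a robust z-score lower than -3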
Calls: active = essential (siRNA alone); inactive = no change (siRNA alone)
In all, the deposit lists 794 reagents; this is an unselected part. Of all reagents, 13 (1.6%) are marked active. 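Calls mark knock-downs lethal by themselves, not drug synergy; drugs went in a day after transfection, with DMSO as vehicle.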 Further read-outs or replicates are left out here. No sequences are given here. Not given: the amount of reagent, the time to read-out.

Target gene | robust z-score, siRNA alone | activity call
SRMS | -0.726 | inactive
GUCY2C (guanylate cyclase 2C) | 0.726 | inactive
THNSL1 (threonine synthase like 1) | 0.659 | inactive
ADK (adenosine kinase) | 0.726 | inactive
PKDCC (protein kinase domain containing, cytoplasmic) | 0.423 | inactive
BRSK1 (BR serine/threonine kinase 1) | -0.355 | inactive
MAP3K13 (mitogen-activated protein kinase kinase kinase 13) | 0.393 | inactive
CLK1 (CDC like kinase 1) | 0.0668 | inactive
STK38 (serine/threonine kinase 38) | -1.79 | inactive

Next part; the last 2 above are carried over.
Target gene | robust z-score, siRNA alone | activity call
CLK1 (CDC like kinase 1) | 0.0668 | inactive
STK38 (serine/threonine kinase 38) | -1.79 | inactive
GRK6 (G protein-coupled receptor kinase 6) | -0.826 | inactive
MAP2K1 (mitogen-activated protein kinase kinase 1) | -0.448 | inactive
CDK19 (cyclin dependent kinase 19) | 0.454 | inactive
MAP3K4 (mitogen-activated protein kinase kinase kinase 4) | 0.355 | inactive
BUB1 (BUB1 mitotic checkpoint serine/threonine kinase) | 0.163 | inactive
ATRX (ATRX chromatin remodeler) | 0.726 | inactive
AXIN2 (axin 2) | -0.0723 | inactive
CAMK1D (calcium/calmodulin dependent protein kinase ID) | 0.667 | inactive
HCK (HCK proto-oncogene, Src family tyrosine kinase) | 0.07 | inactive
HIPK4 (homeodomain interacting protein kinase 4) | 0.726 | inactive
DLG3 (discs large MAGUK scaffold protein 3) | 0.327 | inactive
